# Reference: PubChem BioAssay AID192 (DTP/NCI, 2004)
# The list shows only some results of the screen, not a fair sample: it gathers tests that were run many times, whatever their T/C, doses with no T/C, and many T/C values between a quarter and a half above the control. Further doses and runs are listed elsewhere. T/C gives the treated animals as a percentage of the vehicle group. Some entries give survivors of the animals treated and no T/C: the source holds a T/C of zero for them, seemingly a mark for toxic or unscored doses. Some doses without a T/C left all or most animals alive at the check, yet need not have been tolerated: the source hardly ever lists a survival T/C far under the control, and the zero likely stands for such cases as well. Survivors were counted at the toxicity check, usually on the fifth day, unless a day is given; later deaths do not show. Schedule codes are those of the source, read here as Q, the interval in days (D) or hours (H), X, the number of doses. Additions like (4×) give the number of equal values in this list. Some entries were tested several times; their values stand side by side, smallest first. Some structures stand for samples that the source files as different forms (salt, stereo form or complex); doses refer to the form tested. Where survival is the endpoint, this PubChem deposit counts one and a half times the control or more as active, and values a quarter to a half above the control carry no call in these data; other NCI protocols may use other cut-offs.
# Test system: BDF1 mice, B16 melanoma ip, median survival T/C
# Assay: NCI In Vivo Anticancer Drug Screen. Data for tumor model B16 Melanoma (intraperitoneal) in B6D2F1 (BDF1) mice
# Details: T/C endpoint: median survival time, higher T/C = longer survival
# Experimental: The antitumor activity of compounds was measured in mice bearing transplantable tumors. Survival or tumor size were measured and the results are expressed as the measurement made in the treated group (T) divided by the measurement made in the vehicle treated control group (C). The tumor model used in this assay is B16 Melanoma (intraperitoneal) in B6D2F1 (BDF1) mice
# [1] = dose: 400.0 mg/kg/injection, schedule: Q01DX009 (ip), vehicle: saline with Tween-80
# [2] = dose: 12.5 mg/kg/injection, schedule: Q01DX009 (ip), vehicle: olive oil, sesame oil, peanut oil
# [3] = dose: 25.0 mg/kg/injection, schedule: Q01DX009 (ip), vehicle: olive oil, sesame oil, peanut oil
# [4] = dose: 50.0 mg/kg/injection, schedule: Q01DX009 (ip), vehicle: olive oil, sesame oil, peanut oil
# [5] = dose: 100.0 mg/kg/injection, schedule: Q01DX009 (ip), vehicle: olive oil, sesame oil, peanut oil
# [6] = dose: 200.0 mg/kg/injection, schedule: Q01DX009 (ip), vehicle: olive oil, sesame oil, peanut oil
# [7] = dose: 400.0 mg/kg/injection, schedule: Q01DX009 (ip), vehicle: olive oil, sesame oil, peanut oil
# [8] = dose: 200.0 mg/kg/injection, schedule: Q01DX009 (ip), vehicle: saline with Tween-80
# [9] = dose: 100.0 mg/kg/injection, schedule: Q01DX009 (ip), vehicle: saline with Tween-80
# [10] = dose: 100.0 mg/kg/injection, schedule: Q01DX009 (ip), vehicle: Klucel (hydroxypropylcellulose) (HPC)
# [11] = dose: 50.0 mg/kg/injection, schedule: Q01DX009 (ip), vehicle: saline with Tween-80
# [12] = dose: 12.5 mg/kg/injection, schedule: Q01DX009 (ip), vehicle: saline with Tween-80
# [13] = dose: 25.0 mg/kg/injection, schedule: Q01DX009 (ip), vehicle: saline with Tween-80
smiles,measurement,setting,value
CCCC(=O)O.CCCC(=O)O.CCCC(=O)O.CCCC(=O)O.[Rh].[Rh],survivor count,"dose: 130.0 micrograms/kg/injection, schedule: Q08HX018 (ip), vehicle: saline + alcohol",9 of 10
same,survivor count,"dose: 360.0 micrograms/kg/injection, schedule: Q08HX018 (ip), vehicle: saline + alcohol",10 of 10
same,survivor count,"dose: 432.0 micrograms/kg/injection, schedule: Q01DX009 (ip), vehicle: saline + alcohol",10 of 10
same,survivor count,"dose: 600.0 micrograms/kg/injection, schedule: Q08HX018 (ip), vehicle: saline + alcohol",9 of 10
same,survivor count,"dose: 720.0 micrograms/kg/injection, schedule: Q01DX009 (ip), vehicle: saline + alcohol",10 of 10
same,survivor count,"dose: 1000.0 micrograms/kg/injection, schedule: Q08HX018 (ip), vehicle: saline + alcohol",3 of 10
same,survivor count,"dose: 1200.0 micrograms/kg/injection, schedule: Q01DX009 (ip), vehicle: saline + alcohol",9 of 10
same,survivor count,"dose: 2000.0 micrograms/kg/injection, schedule: Q01DX009 (ip), vehicle: saline + alcohol",1 of 10
CCOC(=O)C(=CN1CCCCCC1)C(=O)OCC,survivor count,[1],7 of 10
C/C=C(\C)C(=O)N/N=C\c1cc(Cl)cc(Cl)c1O,survivor count,[2],10 of 10 (2×)
same,survivor count,[3],10 of 10
same,survivor count,[4],10 of 10 (2×)
same,survivor count,[5],10 of 10
same,survivor count,[6],10 of 10
same,survivor count,[7],2 of 10 and 9 of 10
Nc1ccc(Cl)cc1N,survivor count,[8],8 of 10
same,survivor count,[1],6 of 10
[I][Ga]([I])[I],survivor count,"dose: 50.0 mg/kg/injection, schedule: Q01DX009 (ip), vehicle: saline",10 of 10
same,survivor count,"dose: 100.0 mg/kg/injection, schedule: Q01DX009 (ip), vehicle: saline",10 of 10
CC(C)[C@]12O[C@H]1[C@@H]1O[C@]13[C@]1(O[C@H]1C[C@H]1C4=C(C(=O)OC4)[C@@H](O)C[C@@]13C)[C@@H]2O,T/C,"dose: 200.0 micrograms/kg/injection, schedule: Q01DX009 (ip), vehicle: saline + alcohol",130 % of control
same,survivor count,"dose: 400.0 micrograms/kg/injection, schedule: Q01DX009 (ip), vehicle: saline + alcohol",10 of 10
same,survivor count,"dose: 500.0 micrograms/kg/injection, schedule: Q01DX009 (ip), vehicle: saline + alcohol",0 of 10
C/C(=C\c1ccc(C)cc1)[N+](=O)[O-],survivor count,[9],9 of 10
same,survivor count,[8],0 of 10
NCC(=O)Nc1ccc(O)cc1,survivor count,"dose: 600.0 mg/kg/injection, schedule: Q01DX009 (ip), vehicle: saline",6 of 6
CC(=N/NC(N)=S)/C(C)=N/NC(N)=S,T/C,"dose: 400.0 mg/kg/injection, schedule: Q01DX009 (ip), vehicle: saline",126 % of control
CC1C=NNC1=O (stereo unspecified),T/C,"dose: 266.0 mg/kg/injection, schedule: Q01DX009 (ip), vehicle: saline with Tween-80",144 % of control
same,survivor count,"dose: 600.0 mg/kg/injection, schedule: Q01DX009 (ip), vehicle: saline with Tween-80",10 of 10
CN(CCO)/N=N/c1nc[nH]c1C(N)=O,T/C,"dose: 100.0 mg/kg/injection, schedule: Q01DX009 (ip), vehicle: carboxymethylcellulose (CMC)",135 % of control
same,survivor count,"dose: 200.0 mg/kg/injection, schedule: Q01DX009 (ip), vehicle: carboxymethylcellulose (CMC)",5 of 6
same,survivor count,"dose: 400.0 mg/kg/injection, schedule: Q01DX009 (ip), vehicle: carboxymethylcellulose (CMC)",5 of 6
same,survivor count,"dose: 800.0 mg/kg/injection, schedule: Q01DX009 (ip), vehicle: carboxymethylcellulose (CMC)",2 of 6
COc1cc2c[n+](C)c3c4cc5c(cc4ccc3c2cc1OC)OCO5 (tested in a mixture with another compound),T/C,"dose: 3.13 mg/kg/injection, schedule: Q01DX009 (ip), vehicle: Klucel (hydroxypropylcellulose) (HPC)",126 % of control
same,T/C,"dose: 6.25 mg/kg/injection, schedule: Q01DX009 (ip), vehicle: Klucel (hydroxypropylcellulose) (HPC)",141 % of control
same,T/C,"dose: 6.25 mg/kg/injection, schedule: Q01DX009 (ip), vehicle: distilled water + Tween-80",132 % of control
same,T/C,"dose: 10.0 mg/kg/injection, schedule: Q01DX009 (ip), vehicle: saline",130 % of control
same,T/C,"dose: 12.5 mg/kg/injection, schedule: Q01DX009 (ip), vehicle: Klucel (hydroxypropylcellulose) (HPC)",131 % of control
same,T/C,"dose: 20.0 mg/kg/injection, schedule: Q01DX009 (ip), vehicle: saline",142 % of control
same,T/C,"dose: 25.0 mg/kg/injection, schedule: Q01DX009 (ip), vehicle: Klucel (hydroxypropylcellulose) (HPC)",141 % of control
same,survivor count,[10],10 of 10
C=CCOCC(O)CN(C)C1CCCCC1 (stereo unspecified),survivor count,"dose: 100.0 mg/kg/injection, schedule: Q04DX003 (ip), vehicle: saline",9 of 10
same,survivor count,"dose: 200.0 mg/kg/injection, schedule: Q04DX003 (ip), vehicle: saline",0 of 10
CSc1ncnc2c1ncn2C1OC(CO)C(O)C1O (stereo unspecified),survivor count,"dose: 30.0 mg/kg/injection, schedule: Q01DX009 (ip), vehicle: saline with Tween-80",6 of 6
same,survivor count,"dose: 60.0 mg/kg/injection, schedule: Q01DX009 (ip), vehicle: saline with Tween-80",6 of 6
CC(C)=CN1CCCCC1,survivor count,[11],10 of 10
same,survivor count,[9],10 of 10
S=C(SNC1CCCCC1)SNC1CCCCC1,survivor count,"dose: 100.0 mg/kg/injection, schedule: Q04DX003 (ip), vehicle: Klucel (hydroxypropylcellulose) (HPC)",9 of 9
same,survivor count,"dose: 200.0 mg/kg/injection, schedule: Q04DX003 (ip), vehicle: Klucel (hydroxypropylcellulose) (HPC)",10 of 10
same,survivor count,"dose: 400.0 mg/kg/injection, schedule: Q04DX003 (ip), vehicle: Klucel (hydroxypropylcellulose) (HPC)",10 of 10
CSc1ccc2c(c1)C(N1CCN(C)CC1)Cc1ccccc1S2 (stereo unspecified),survivor count,"dose: 6.25 mg/kg/injection, schedule: Q01DX009 (ip), vehicle: saline with Tween-80",9 of 10
same,survivor count,[12],6 of 10
same,survivor count,[13],2 of 10
same,survivor count,[11],0 of 10
Nc1nc(N)c2c(ccc3c2ccn3Cc2cccc([N+](=O)[O-])c2)n1,survivor count,[12],10 of 10
same,survivor count,[13],10 of 10
CCOc1nsc(OCC)n1,survivor count,"dose: 200.0 mg/kg/injection, schedule: Q04DX003 (ip), vehicle: distilled water + Tween-80",9 of 10
same,survivor count,"dose: 400.0 mg/kg/injection, schedule: Q04DX003 (ip), vehicle: distilled water + Tween-80",8 of 10
O=C(O)c1ccc2c3c(ccc(C(=O)O)c13)CC2,survivor count,[10],10 of 10
same,survivor count,"dose: 200.0 mg/kg/injection, schedule: Q01DX009 (ip), vehicle: Klucel (hydroxypropylcellulose) (HPC)",6 of 10
O=S(=O)(c1ccc(NC(=S)N/N=C/c2ccccc2O)cc1)N1CCCCC1,survivor count,[2],9 of 10 and 10 of 10
same,survivor count,[3],10 of 10
same,survivor count,[4],10 of 10
same,survivor count,[5],10 of 10 (2×)
same,survivor count,[6],9 of 10 and 10 of 10
same,survivor count,[7],6 of 10 and 10 of 10
O=C1c2ccccc2S(=O)c2ccccc21,survivor count,"dose: 400.0 mg/kg/injection, schedule: Q01DX009 (ip), vehicle: Klucel (hydroxypropylcellulose) (HPC)",5 of 10
